Data taken from PMC11520951.
These are yes or no findings as the source states them, for the method shown. Some binding calls cover weakened binding; strength is not graded here.

Target: polyubiquitin (K48Ub2-8, UBPBio, D1500) (UniProt P0CG48)
Assay: pull-down; competition: 2.2 ug polyubiquitin pre-incubated with 1 ug synthetic polypeptide for 1 h at 4°C before the incubation with the GST-fusion protein; otherwise as the GST pull-down; both purified

binding: binds
Binder: ADLETLGYETDLELAIALSLQEHNQLTD [synthetic polypeptide XtCRY6DI-UIM_WT]
